Test [1] deals with GST-tagged CK2β NP_001311.3; p.Asp32His (Homo sapiens) (UniProt P67870). The test can be described thus: pull-down; Glutathione Sepharose 4B beads carrying GST-tagged CK2β incubated overnight with precleared lysates of HeLa cells expressing GFP-tagged β-catenin; immunoblot; only the target purified.
The target of test [2] is GST-tagged CK2β, wild type (Homo sapiens) (UniProt P67870). The description is as above.
The target in test [3] is GST-tagged CK2β NP_001311.3; p.Asp32His (Homo sapiens) (UniProt P67870). The test can be described thus: pull-down; Glutathione Sepharose 4B beads carrying GST-tagged CK2β incubated overnight with precleared HeLa cell lysates; washed five times with PBS; immunoblot of endogenous proteins; only the target purified. (In general: In western blotting, separated proteins are transferred to a membrane and probed.)

Sequences of proteins named here, by UniProt entry; tags and fusion partners are left off. A change or cut given only in a name is not applied to a line headed by its entry. A line that says so, or that is headed by a name, gives the form on record, which may keep a tag or linker.
UniProt P67870: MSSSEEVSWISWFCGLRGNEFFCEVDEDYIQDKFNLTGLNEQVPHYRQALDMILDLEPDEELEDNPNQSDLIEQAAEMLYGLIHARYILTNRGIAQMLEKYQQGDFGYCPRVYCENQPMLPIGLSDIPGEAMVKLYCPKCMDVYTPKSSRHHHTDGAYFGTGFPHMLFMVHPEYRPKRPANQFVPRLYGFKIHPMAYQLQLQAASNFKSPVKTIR
GST-tagged CK2β NP_001311.3; p.Asp32His (P67870, form named): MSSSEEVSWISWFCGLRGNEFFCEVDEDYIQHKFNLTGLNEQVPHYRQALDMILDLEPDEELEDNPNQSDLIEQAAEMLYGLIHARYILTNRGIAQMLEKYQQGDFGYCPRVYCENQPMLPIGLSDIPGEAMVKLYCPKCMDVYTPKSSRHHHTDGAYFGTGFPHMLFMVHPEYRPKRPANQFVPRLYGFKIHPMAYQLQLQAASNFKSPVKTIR
UniProt P35222: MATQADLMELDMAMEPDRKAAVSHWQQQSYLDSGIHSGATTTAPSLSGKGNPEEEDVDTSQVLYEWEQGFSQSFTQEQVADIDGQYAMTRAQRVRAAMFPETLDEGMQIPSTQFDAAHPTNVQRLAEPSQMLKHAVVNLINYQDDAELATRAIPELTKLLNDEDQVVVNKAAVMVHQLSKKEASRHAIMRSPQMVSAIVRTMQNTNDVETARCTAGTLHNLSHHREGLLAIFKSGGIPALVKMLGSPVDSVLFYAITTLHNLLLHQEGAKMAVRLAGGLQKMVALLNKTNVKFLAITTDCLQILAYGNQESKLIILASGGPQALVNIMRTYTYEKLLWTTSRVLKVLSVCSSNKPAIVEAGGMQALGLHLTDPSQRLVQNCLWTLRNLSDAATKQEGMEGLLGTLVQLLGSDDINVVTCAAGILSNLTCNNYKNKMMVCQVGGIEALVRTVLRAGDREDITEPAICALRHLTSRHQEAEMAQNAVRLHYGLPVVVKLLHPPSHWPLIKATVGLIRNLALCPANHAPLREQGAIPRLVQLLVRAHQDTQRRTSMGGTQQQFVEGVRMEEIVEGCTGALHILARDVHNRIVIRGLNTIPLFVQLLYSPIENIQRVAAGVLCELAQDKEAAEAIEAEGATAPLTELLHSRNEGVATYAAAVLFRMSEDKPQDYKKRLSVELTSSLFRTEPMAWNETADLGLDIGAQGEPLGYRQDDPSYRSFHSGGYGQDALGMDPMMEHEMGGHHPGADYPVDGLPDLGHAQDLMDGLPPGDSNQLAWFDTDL

Test [4] addresses GST-tagged CK2β, wild type (Homo sapiens) (UniProt P67870). Described as above.

Results are given in words; binding and its absence hold for the method and conditions named. Binding seen in cells or lysates may run through a third protein. Some binding calls cover weakened binding; strength is not graded here.

For the substance “GFP-tagged β-catenin (from UniProt P35222 1-781)”, the binding entry in test [1] and in test [2] was “binds” in each case.

In the case of “β-catenin, endogenous (from UniProt P35222 1-781)”, the binding entry in test [3] and in test [4] was “binds” each time.
